# According to PubChem BioAssay AID493014 (National Center for Advancing Translational Sciences (NCATS), 2011):
# In all, about 340,000 compounds went through this assay and about 170 (0.05%) were called active. The shares of active, inactive and inconclusive entries below differ from those in the screen. Calls come from the whole dose curve; as a rule, active = well fitted inhibition curve with a large enough effect in the signal ratio, with a control signal flat (not every such curve was filed as active); inconclusive = small, poorly fitted or top-dose-only effect, or effect the other way, or a change in a side signal; inactive = flat fitted curve, though single readings scatter; the % refers to the signal ratio. Potencies of inconclusive entries are doubtful fits and often do not repeat.
# Experiment: qHTS Assay to Find Inhibitors of Chronic Active B-Cell Receptor Signaling;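 for activity change, negative = inhibition: plate controls were basal doxycycline-induced cells for no effect and cells given 10 µM MG132 for full effect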
# Conditions: ABC-DLBCL IkBa-CBG/CBR reporter, luminescence ratio (green luciferase fused to IkBa over red control in TMD8 lymphoma cells), 4 h; activity change, negative = inhibition: at 46.1 µM (top of the series) unless noted
# Method in brief: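 Concentration-response series (up to 46 uM) were applied to TMD8 dual-reporter cells for 4 h at 37C with doxycycline. Green/red ratio, after filter-overlap correction, defined %Activity; red signal alone was normalised to basal cells and zero luminescence.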
# Potency is the fitted concentration of half-maximal effect.
SMILES,"activity change, negative = inhibition",Potency
COc1ccc(OC)c(C(=O)CSc2nnnn2C)c1,inconclusive: -7.6%,–
Cc1c2ccccc2nc2c(F)c(NCCO)c(F)c(F)c12,inactive,–
O=C(O)CCc1ccc(-c2ccccc2)n1CC(=O)Nc1cccc(C(F)(F)F)c1,inactive,–
CCOc1ccccc1Nc1nnc(-c2cc3cc(OC)ccc3oc2=O)s1,–,"inconclusive: 1 µM [falling, full curve, poor fit]"
COc1cc(-c2cc(OC)c3c(C)oc(C)c3c(=O)c2)ccc1O,–,"inconclusive: 25.1 µM [falling, single point]"
Fc1cccc(Cc2noc(CN3CCCN(C4Cc5ccccc5C4)CC3)n2)c1,–,"inconclusive: 35.5 µM [falling, single point]"
CN1CCN(S(=O)(=O)c2cccc(C(=O)N(C)CC(=O)Nc3ccc(F)c(F)c3F)c2)CC1,inactive,–
O=C(NCc1ccc[n+](CCCCS(=O)(=O)[O-])c1)c1ccc(OC(F)F)cc1,inconclusive: 1.05%,–
CCNC(=S)Nc1cccc(S(=O)(=O)Nc2ccccc2OC)c1,inactive,–
COc1ccccc1-c1nn2c(C3COc4ccccc4O3)nnc2s1 (stereo not drawn),inconclusive: 4.08%,–
CCOC(=O)C1CCCN(C(=O)c2csc(-c3ccc4c(c3)CCO4)n2)C1 (stereo not drawn),inactive,–
COc1cc(C(=O)NC(=S)Nc2ccccc2[N+](=O)[O-])cc(OC)c1OC,inconclusive: -10.1%,–
O=C(CC(SCCO)c1ccc(F)cc1)c1ccco1 (stereo not drawn),–,"inconclusive: 25.1 µM [falling, single point]"
CCCCn1c(-c2csc(CC)c2)n[nH]c1=S,inconclusive: 1.35%,–
COc1ccc(CCC(C)Nc2ccccc2F)cc1 (stereo not drawn),inconclusive: 6.14%,–
CCc1nc(OCCN(C)C)c2oc3ccccc3c2n1,inconclusive: -2.9%,–
COc1ccc(N(CC(=O)Nc2cc(C)on2)S(=O)(=O)c2cc(C)ccc2C)cc1,inconclusive: -0.89%,–
NC(=O)c1ncc(C(F)(F)F)cc1Oc1ccc(C(F)(F)F)cc1,inconclusive: 6.85%,–
COc1cc(C)ccc1OCCOc1ccccc1Cl,inconclusive: 4.62%,–
O=C(CC(c1ccco1)S(=O)(=O)c1ccccc1)c1ccccc1 (stereo not drawn),inconclusive: -29.3%,–
O=C(CCc1nnc2n(Cc3ccc(F)cc3)c(=O)c3ccccc3n12)NCCN1CCOCC1,inconclusive: 18.2%,–
CCC(=O)c1ccccc1OCCN1CCN(Cc2ccccc2)CC1,inactive,–
Cc1ccc(CCC(=O)Nc2ccc(N(C)C)cc2)o1,–,"inconclusive: 22.4 µM [falling, single point]"
Cc1ccc(C(=O)Nc2sc(C)c(C)c2C(=O)c2ccccc2)cc1,inactive,–
Cc1cc(C)cc(NS(=O)(=O)c2ccc3[nH]cc(C(=O)N4CCc5ccccc54)c(=O)c3c2)c1,–,"inconclusive: 29.1 µM [falling, single point]"
Cc1ccc(/C=N/NC(=O)CSc2nc3ccccc3n2Cc2ccc(Cl)cc2)o1,inconclusive: -11%,–

SMILES,"activity change, negative = inhibition",Potency
O=C(CCC1CCCCC1)NCc1cccnc1,inconclusive: -0.0014%,–
COc1ccc(NC(=O)Nc2cccc(F)c2)c(OC)c1,–,"inconclusive: 28.2 µM [falling, single point]"
CCOC(=O)c1sc(N(Cc2ccccc2)C(=O)COC(=O)c2cnccn2)nc1C,inconclusive: 0.277%,–
O=C(c1cc(-c2cccc(O)c2)on1)N1CCCC1,–,"inconclusive: 22.4 µM [falling, single point]"
COCCCNc1nc2c(-c3cccc(C)c3)nnn2c2ccc(Cl)cc12,–,"inconclusive: 3.55 µM [falling, partial curve]"
Cc1nnc(SCC(=O)Nc2ccc3c(c2)OCCO3)s1,–,"inconclusive: 5.17 µM [falling, partial curve, poor fit]"
O=C(CN1c2cccc3cccc(c23)S1(=O)=O)Nc1ccc(S(=O)(=O)N2CCOCC2)cc1,inconclusive: -1.14%,–
CCOC(=O)C1(CCOc2ccccc2)CCN(Cc2ccc(C#CCCO)cc2)CC1,–,"inconclusive: 25.1 µM [falling, single point]"
CCCCN(C(=O)c1ccc(C#N)cc1)c1c(N)n(CCC)c(=O)[nH]c1=O,inconclusive: -9.09%,–
Cc1ccc(-n2nnnc2SCC(=O)N2CC(=O)Nc3ccccc32)cc1,inconclusive: 2.62%,–
CCOC(=O)C1CCN(C(=O)COc2cc(C)c(Br)cc2C)CC1,–,"inconclusive: 22.4 µM [falling, partial curve]"
Cc1nn(-c2ccccc2)c(Cl)c1C(=O)OCC(=O)NCCc1ccccc1,inconclusive: 9.97%,–
Cc1ccc(-c2nnc(SCC(=O)Nc3cccnc3Cl)n2N)cc1,inactive,–
CC(OC(=O)/C=C/c1ccc2ccccc2n1)C(=O)Nc1ccc(S(N)(=O)=O)cc1 (stereo not drawn),–,"inconclusive: 20.6 µM [falling, partial curve, poor fit]"
CCOC(=O)Cc1csc(NC(=O)Nc2cccc(OC)c2)n1,inconclusive: -10.9%,–
Oc1ccc(/C=N/NC(=S)N/N=C/c2ccc(O)cc2)cc1,–,"inconclusive: 35.5 µM [rising, partial curve, poor fit]"
O=C(CCC1CCCCC1)NCc1ccncc1,inconclusive: 12.5%,–
Cc1nc(NCCc2ccccc2)sc1C(=O)N(C)C,inactive,–
COc1cccc(CSc2nc3n(n2)C(CC(C)C)C(C(=O)Nc2ccccc2OC)=C(C)N3)c1 (stereo not drawn),inconclusive: -23.9%,–
COc1cc(OC)cc(C(=O)N[C@H](C(=O)OCC(=O)Nc2sccc2C#N)C(C)C)c1,inconclusive: 2.92%,–
O=c1cc(O)nc(-c2ccc(Cl)cc2)s1,inactive,–
Cc1oncc1C(=O)Nc1ccc2ccccc2c1,–,"inconclusive: 31.6 µM [rising, single point]"
CC(OC(=O)c1cc(=O)[nH]c2ccccc12)c1ccccc1 (stereo not drawn),–,"inconclusive: 29.1 µM [falling, single point]"
CCN(CC)C(=O)C1CCN(S(=O)(=O)c2c(C)noc2/C=C/c2cccc(C)c2)CC1,–,"inconclusive: 3.55 µM [falling, single point]"
CCOc1ccccc1NC(=O)C(OC(=O)c1ccc(O)cc1)c1ccccc1 (stereo not drawn),inconclusive: -0.438%,–
CCCSC(=S)NC1CCS(=O)(=O)C1 (stereo not drawn),–,"inconclusive: 15.8 µM [falling, partial curve, poor fit]"

# Shown with tabs: 2 of the compounds above
SMILES	activity change, negative = inhibition	Potency
Cc1ccc(C(=O)Nc2sc(C)c(C)c2C(=O)c2ccccc2)cc1	inactive	–
O=C(c1cc(-c2cccc(O)c2)on1)N1CCCC1	–	inconclusive: 22.4 µM [falling, single point]

# Laid out differently: results already given
SMILES	activity change, negative = inhibition	Potency
O=C(O)CCc1ccc(-c2ccccc2)n1CC(=O)Nc1cccc(C(F)(F)F)c1	inactive	–
Cc1ccc(CCC(=O)Nc2ccc(N(C)C)cc2)o1	–	inconclusive: 22.4 µM [falling, single point]
CCOC(=O)C1(CCOc2ccccc2)CCN(Cc2ccc(C#CCCO)cc2)CC1	–	inconclusive: 25.1 µM [falling, single point]

# Remaining list, next part.

SMILES,"activity change, negative = inhibition",Potency
Cc1nnc(-c2ccccc2)nc1N(C)C,inconclusive: 0.0689%,–
CS(=O)(=O)N1Cc2ccccc2CC1C(=O)OCC(=O)NCc1ccccc1 (stereo not drawn),inactive,–
CCCOc1ccc(-c2c(=O)n(OCc3ccc([N+](=O)[O-])cc3)c3ccccc3[n+]2[O-])cc1,inconclusive: -13.7%,–
Cc1ccc(-c2nc3sc(CCNS(=O)(=O)c4cc(F)ccc4F)c(C)n3n2)cc1,inactive,–
Cn1cc(-c2ccc(Cl)cc2)cc(C#N)c1=O,inconclusive: 10.7%,–
CC(=O)Nc1ccc(S(=O)(=O)N(C)CC(=O)OCC(=O)NC(C)C23CC4CC(CC(C4)C2)C3)cc1 (stereo not drawn),inconclusive: 16.8%,–
O=C(O)CCN1CC2([N+](=O)[O-])CC=C(OCCO)C([N+](=O)[O-])(C1)C2 (stereo not drawn),inactive,–
COc1ccc(N(C(=O)CCl)C(C)(C(=O)Nc2c(C)cccc2C)c2ccccn2)cc1 (stereo not drawn),inconclusive: 1.27%,–
CCn1cnc2sc(C(=O)N(Cc3ccc(N(C)C)cc3)Cc3ccco3)c(C)c2c1=O,inconclusive: 4.23%,–
Cc1c(C(=O)N2CCN(CC(=O)Nc3ccccc3Cl)CC2)oc2ccc(Br)cc12,inactive,–
C/C(=N\Nc1nc2ccccc2c(=O)n1O)c1ccco1,–,"inconclusive: 2.82 µM [falling, partial curve]"
C[C@H](NC(=O)c1nc[nH]c1C(=O)N[C@H](C)c1ccccc1)C(=O)OCc1ccccc1,–,"inconclusive: 35.5 µM [falling, partial curve, poor fit]"
COC(=O)c1cc(NC(=O)Nc2ccccc2)ccc1Cl,inconclusive: 0.0414%,–
CCN(CC)S(=O)(=O)c1ccc2oc(C(=O)NCc3ccc(C)cc3)c(C)c2c1,inconclusive: -0.426%,–
CCC1CCCCN1CCNC(=O)c1[nH]c(C)c(C(C)=O)c1C (stereo not drawn),–,"inconclusive: 12.6 µM [falling, partial curve, poor fit]"
O=C(COC(=O)c1c(Cl)cccc1Cl)NC1CCCCC1,–,"inconclusive: 22.4 µM [falling, single point]"
COC(=O)CSc1nc(-c2ccccc2)cc(-c2ccco2)c1C#N,–,"inconclusive: 10 µM [rising, partial curve, poor fit]"
CCCC(=O)c1ccc(-c2ccccc2)cc1,inconclusive: 5.15%,–
COc1cc(NC(=O)c2cccs2)cc(OC)c1,–,"inconclusive: 25.9 µM [falling, single point]"
CCCCNC(=S)N=Nc1c(O)[nH]c2ccccc12,–,"inconclusive: 25.1 µM [cytotoxic, single point]"
COc1cc(OC)c(C2C(C#N)=C(N)Oc3cc(C)n(CCCN4CCOCC4)c(=O)c32)cc1OC (stereo not drawn),inconclusive: 1.71%,–
Fc1ccc(NC(=S)Nc2ccc(Br)cc2)cc1,inconclusive: -0.115%,–
COc1ccc(NC(=O)C2CCCN(S(=O)(=O)c3cccc4nonc34)C2)cc1 (stereo not drawn),–,"inconclusive: 29.1 µM [falling, single point]"
CSC(=S)N/N=C/c1ccc(Br)cc1,inconclusive: 4.05%,–
O=C(CNC(=O)c1ccccc1F)OCc1csc(-c2ccccc2)n1,inconclusive: 6.12%,–
NC(=S)N/N=C/c1ccc(-c2cccc([N+](=O)[O-])c2)o1,–,"inconclusive: 31.6 µM [falling, single point]"
